According to PubChem BioAssay AID504834 (National Center for Advancing Translational Sciences (NCATS), 2011):
Among all 320,000 compounds or so, about 22,000 (6.9%) were called active. Inconclusive means that the source gave no clear call. Such entries were picked first, then a sample of the others. Calls come from the whole dose curve; as a rule, active = well fitted inhibition curve with a large enough effect; inconclusive = small, poorly fitted or top-dose-only effect, or another doubt; inactive = no such curve, though single readings can be large or run the other way. Potencies of inconclusive entries are doubtful fits and often do not repeat.

Test: Primary qHTS for delayed death inhibitors of the malarial parasite plastid, 96 hour incubation
Conditions: P. falciparum luciferase reporter growth; series mostly up to 28.7 µM; activity change, negative = inhibition: at the top concentration
Outline: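 Plates of compound plus infected erythrocytes (2% hematocrit, 0.05% parasitemia final) incubate 96 hours, 37 C, 5% CO2. Detection reagent added; reduced luminescence from the parasites' luciferase reporter flags inhibition.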
% is set by controls: 0 for no effect and ±100 for the full control effect; potency is the fitted concentration of half-maximal effect.

| SMILES | activity change, negative = inhibition | Potency |
| --- | --- | --- |
| NS(=O)(=O)c1ccc(CCNC(=O)c2ccc(Cl)s2)cc1 | inactive: 42% |  |
| COc1ccc(NC(=O)Cn2c(=O)n(-c3ccc(OC)cc3OC)c(=O)c3c(C)c(C)sc32)cc1 |  | active: 11.7 µM |
| CN(C)C(=O)COc1ccc2c3c(c(=O)oc2c1)CCCC3 |  | active: 9.28 µM |
| O=[N+]([O-])c1ccc2c(c1)ncn2-c1ccccc1 |  | inconclusive: 14.7 µM [inhibitor, partial curve, poor fit] |
| Cc1ccc(/C=C2\SC(N3CCN(C(c4ccccc4)c4ccccc4)CC3)=NC2=O)o1 |  | active: 1.65 µM |
| O=[N+]([O-])c1c(Nc2ccc(Br)cc2)ccc2nonc12 |  | inconclusive: 5.22 µM [inhibitor, partial curve] |
| CCOC(=O)C1CCCN(C2CC(=O)N(c3ccc(NC(C)=O)cc3)C2=O)C1 (stereo unspecified) |  | inconclusive: 3.7 µM [inhibitor, full curve, poor fit] |
| NNC(=O)C1CC1c1ccccc1 (stereo unspecified) |  | active: 9.28 µM |
| Cc1cc(C)cc(NC(=O)CSCc2cnn(-c3ccccc3)c2-n2cccc2)c1 |  | inconclusive: 18.5 µM [inhibitor, single point] |
| O=C(Nc1cccc(C(F)(F)F)c1)c1cccnc1N1CCOCC1 |  | inconclusive: 13.1 µM [inhibitor, single point] |
| COc1ccccc1CCCNC(=O)C1CCC(=O)N(CCc2ccc(Cl)cc2)C1 (stereo unspecified) |  | inconclusive: 18.5 µM [inhibitor, single point] |
| COc1ccc(CNCC(O)COCc2cccs2)cc1 (stereo unspecified) |  | inconclusive: 14.7 µM [inhibitor, single point] |
| COC(=O)CCc1c(C)[nH]c(=S)[nH]c1=O |  | inconclusive: 4.15 µM [inhibitor, single point] |
| CCCN(Cc1nnc(-c2ccccc2Cl)o1)C(=O)c1cc(S(=O)(=O)N2CCOCC2)ccc1F |  | inconclusive: 9.28 µM [inhibitor, single point] |
| CC(C)CN1CCC(=O)N([C@H](CSc2ccc(Br)cc2)c2ccccc2)CC1 | inactive: 32.8% |  |
| COC(=O)c1cc(C(=O)Nc2ccc(S(N)(=O)=O)cc2)cc([N+](=O)[O-])c1 | inactive: 12.5% |  |
| CC(NC(=O)c1ccc2c(c1)OCO2)C(c1cccs1)N1CCN(c2ccccc2)CC1 (stereo unspecified) |  | active: 11.7 µM |
| Cc1ccc(CNC(=O)c2nnc(CS(=O)(=O)c3ccccc3)o2)cc1 |  | inconclusive: 18.5 µM [inhibitor, single point] |
| COC(=O)c1c(N2C(=O)Nc3ccccc3N2O)sc2c1CCCC2 | inactive: -1.48% |  |
| O=C(CCNC(=O)c1ccc([N+](=O)[O-])cc1)Nc1cccc(S(=O)(=O)N2CCOCC2)c1 |  | inconclusive: 7.38 µM [inhibitor, partial curve] |
| COc1ccc(NC(=O)NC2CCN(C(C)C)CC2)c(OC)c1 | inactive: 3.87% |  |
| COc1cc(OC)c(OC)cc1CNC(=O)c1cc(S(=O)(=O)N2CCOCC2)ccc1F | inactive: -43% |  |
| CCN1CCN(C(=S)Nc2ccsc2C(=O)OC)CC1 |  | inconclusive: 0.37 µM [inhibitor, full curve, poor fit] |

Whole records from above:
CC(C)CN1CCC(=O)N([C@H](CSc2ccc(Br)cc2)c2ccccc2)CC1 is listed as activity change, negative = inhibition: inactive: 32.8%
Cc1ccc(/C=C2\SC(N3CCN(C(c4ccccc4)c4ccccc4)CC3)=NC2=O)o1 is listed as Potency: active: 1.65 µM

Further compounds follow.

| SMILES | activity change, negative = inhibition | Potency |
| --- | --- | --- |
| Oc1ccc(/C=N/N2CCN(Cc3ccccc3)CC2)cc1 |  | inconclusive: 18.5 µM [inhibitor, single point] |
| O=C1NC(=O)C(Cc2c[nH]c3ccccc23)N1 (stereo unspecified) | inactive: 43.1% |  |
| CCC(=O)Nc1ccc(C2=Nn3c(nnc3C(C)C)SC2)cc1 |  | inconclusive: 6.57 µM [inhibitor, partial curve, poor fit] |
| N#CCCn1cc(/C=C2\NC(=S)N(c3ccccc3)C2=O)c(-c2ccc(-c3ccccc3)cc2)n1 |  | inconclusive: 13.1 µM [inhibitor, single point] |
| CC(C)C1COC(c2cccc3ccccc23)=N1 (stereo unspecified) | inactive: 274% |  |
| COC(=O)c1ccccc1NC(=S)NC(=O)c1ccc(C)cc1 | inactive: 15.9% |  |
| CC(C)C(=O)Nc1ccc(C(=O)NNC(=O)c2cccs2)cc1 |  | inconclusive: 3.7 µM [inhibitor, single point] |
| CCN(CC)S(=O)(=O)c1ccc(C(=O)N2CCN(C(=O)c3ccco3)CC2)cc1 | inactive: -15.4% |  |
| COc1ccc(NC(=O)COc2coc(CN3c4ccccc4CC3C)cc2=O)cc1 (stereo unspecified) |  | active: 8.28 µM |
| COc1ccc([N+](=O)[O-])cc1NC(=O)Cc1noc2ccccc12 |  | inconclusive: 10.4 µM [inhibitor, single point] |
| O=C(Oc1ccccc1N1C(=O)CCC1=O)c1ccco1 |  | active: 9.28 µM |
| CCN(CC)C(=O)COc1ccc(S(=O)(=O)N2CCOCC2)cc1 |  | inconclusive: 3.7 µM [inhibitor, partial curve] |
| COc1ccc(CCNC(=O)COC(=O)c2cc(S(=O)(=O)N3CCCC3)ccc2O)cc1 |  | inconclusive: 5.86 µM [inhibitor, partial curve] |
| O=C(Cc1ccccc1)N1CCC(c2nc3ccccc3[nH]2)CC1 |  | inconclusive: 18.5 µM [inhibitor, single point] |
| COC(=O)C1=C(NC(=O)c2cccc(OC)c2)CCS1 |  | active: 4.15 µM |
| O=C(Nc1cccc(S(=O)(=O)N2CCOCC2)c1)c1ccc(N2CCOCC2)c([N+](=O)[O-])c1 |  | inconclusive: 5.86 µM [inhibitor, partial curve, poor fit] |
| CC(C)C[C@H](NC(=O)OC(C)(C)C)c1nnc(SCc2cccc(F)c2)o1 |  | active: 10.4 µM |
| CCOC(=O)c1cc(S(=O)(=O)N2CC(C)CC(C)C2)cn1C (stereo unspecified) |  | inconclusive: 3.29 µM [inhibitor, partial curve, poor fit] |
| CC(C)Cc1nnc(NC(=O)CN2C(=O)NC3(CCCCC3)C2=O)s1 | inactive: -3.02% |  |
| CC1CCCC(NC(=O)c2ccc(CNc3c(N4CCCC4)c(=O)c3=O)cc2)C1C (stereo unspecified) |  | inconclusive: 18.5 µM [inhibitor, single point] |
| Cc1cc(C)c(C#N)c(SCC(=O)NN2CC(=O)N(c3ccccc3F)CC2=O)n1 |  | inconclusive: 1.04 µM [inhibitor, partial curve, poor fit] |
| CCOc1ccc(C(=O)OCC(=O)NCc2ccco2)cc1OCC | inactive: -11.8% |  |
| COc1ccc(Oc2coc3cc(O)ccc3c2=O)cc1 |  | inconclusive: 16.5 µM [inhibitor, single point] |
